Source: paper PMC8636471
These are yes or no findings as the source states them, for the method shown. In cells and extracts the contact can be indirect. Some results given as binding are weak or reduced against the parent protein; the word gives no strength. For some of these results: Where a sequence is shown, tags or fusion partners need not be part of it.

Chains of the proteins cited; added tags and fusions are not shown.
UniProt P35222: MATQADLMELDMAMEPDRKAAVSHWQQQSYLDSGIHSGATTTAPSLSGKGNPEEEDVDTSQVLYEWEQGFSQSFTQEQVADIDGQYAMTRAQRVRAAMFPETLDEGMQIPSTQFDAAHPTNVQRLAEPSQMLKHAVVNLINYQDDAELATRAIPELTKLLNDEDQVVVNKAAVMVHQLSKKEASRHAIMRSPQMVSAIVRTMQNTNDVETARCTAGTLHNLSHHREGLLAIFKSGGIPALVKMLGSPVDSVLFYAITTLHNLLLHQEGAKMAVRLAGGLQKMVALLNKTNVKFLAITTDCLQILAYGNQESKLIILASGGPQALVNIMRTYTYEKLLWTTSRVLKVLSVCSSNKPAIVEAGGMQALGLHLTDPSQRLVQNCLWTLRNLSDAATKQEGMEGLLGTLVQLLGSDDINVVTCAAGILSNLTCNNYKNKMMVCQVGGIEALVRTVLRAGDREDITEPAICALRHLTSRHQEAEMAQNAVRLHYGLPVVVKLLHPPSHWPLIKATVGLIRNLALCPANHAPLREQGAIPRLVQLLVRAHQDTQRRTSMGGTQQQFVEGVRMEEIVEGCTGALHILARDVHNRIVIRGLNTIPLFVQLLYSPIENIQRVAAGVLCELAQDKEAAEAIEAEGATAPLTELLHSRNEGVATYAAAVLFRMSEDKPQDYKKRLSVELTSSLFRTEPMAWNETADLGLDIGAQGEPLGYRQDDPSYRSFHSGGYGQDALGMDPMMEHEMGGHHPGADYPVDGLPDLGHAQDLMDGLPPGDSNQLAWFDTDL

Key:
[1] = biological target: T1, N-terminus of DSTYK (1-500 aa) (UniProt Q6XUX3); assay: co-IP; exogenously expressed Flag-DSTYK (or its fragments) and myc-β-catenin; cells harvested 48 h after transfection, RIPA buffer, antibody overnight at 4 °C with IgG as control, protein A beads, western blot
T1 sequence: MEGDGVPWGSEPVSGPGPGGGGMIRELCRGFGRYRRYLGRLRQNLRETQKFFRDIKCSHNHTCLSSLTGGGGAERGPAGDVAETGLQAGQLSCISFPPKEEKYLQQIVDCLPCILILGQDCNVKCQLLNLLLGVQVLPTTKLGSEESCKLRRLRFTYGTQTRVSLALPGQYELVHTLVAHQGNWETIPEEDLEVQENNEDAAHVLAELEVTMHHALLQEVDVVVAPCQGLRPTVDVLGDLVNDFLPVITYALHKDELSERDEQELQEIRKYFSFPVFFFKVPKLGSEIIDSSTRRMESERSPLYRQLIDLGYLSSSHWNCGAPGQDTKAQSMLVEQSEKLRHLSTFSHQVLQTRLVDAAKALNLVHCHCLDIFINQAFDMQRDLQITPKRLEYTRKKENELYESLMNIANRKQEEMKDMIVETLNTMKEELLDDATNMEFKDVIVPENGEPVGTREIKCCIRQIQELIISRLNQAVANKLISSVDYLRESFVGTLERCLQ

[2] = biological target: T2, Flag-DSTYK (dual serine/threonine and tyrosine protein kinase), full length (UniProt Q6XUX3); assay: as above
T2 sequence: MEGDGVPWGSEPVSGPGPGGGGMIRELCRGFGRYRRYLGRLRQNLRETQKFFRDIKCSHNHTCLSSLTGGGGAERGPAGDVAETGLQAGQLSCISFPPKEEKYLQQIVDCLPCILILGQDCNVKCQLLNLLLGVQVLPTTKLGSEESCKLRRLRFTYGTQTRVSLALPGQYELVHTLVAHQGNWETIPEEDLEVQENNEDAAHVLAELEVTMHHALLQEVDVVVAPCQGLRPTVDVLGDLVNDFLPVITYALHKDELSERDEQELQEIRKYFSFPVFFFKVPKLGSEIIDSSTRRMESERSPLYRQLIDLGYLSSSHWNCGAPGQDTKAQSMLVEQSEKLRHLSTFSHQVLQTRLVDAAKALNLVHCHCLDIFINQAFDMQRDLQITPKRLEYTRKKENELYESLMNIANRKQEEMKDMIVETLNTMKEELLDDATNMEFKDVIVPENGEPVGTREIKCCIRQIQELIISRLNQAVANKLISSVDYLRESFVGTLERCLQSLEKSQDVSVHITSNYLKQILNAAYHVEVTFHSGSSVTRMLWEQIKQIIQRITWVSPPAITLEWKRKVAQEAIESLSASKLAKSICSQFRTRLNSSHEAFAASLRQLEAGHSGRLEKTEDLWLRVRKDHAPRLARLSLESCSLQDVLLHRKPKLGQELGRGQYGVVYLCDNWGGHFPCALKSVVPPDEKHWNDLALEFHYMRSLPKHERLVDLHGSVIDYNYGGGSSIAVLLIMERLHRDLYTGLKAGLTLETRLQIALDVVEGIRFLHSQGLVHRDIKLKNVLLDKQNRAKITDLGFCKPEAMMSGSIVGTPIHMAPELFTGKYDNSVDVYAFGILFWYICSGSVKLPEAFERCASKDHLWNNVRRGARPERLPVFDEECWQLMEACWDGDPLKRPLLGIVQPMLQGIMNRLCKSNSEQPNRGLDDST

GST-DSTYK fusion protein = biological target: T3, GST-DSTYK fusion protein (UniProt Q6XUX3); assay: pull-down; 5 µg of GST or GST-DSTYK fusion protein added to cell lysate (RIPA buffer) at 4 °C, Sepharose 4B beads, western blot for endogenous β-catenin; only the target purified
T3 sequence: T2 sequence

[3] = biological target: endogenous β-catenin (human (endogenous in lung adenocarcinoma cells)) (UniProt P35222); assay: co-IP; endogenous proteins in lung adenocarcinoma cells (by the text); cells lysed with RIPA buffer, anti-β-catenin antibody for immunoprecipitation, western blot

In the case of “myc-β-catenin (from UniProt P35222 1-781)”, the binding [1] is reported as “binds” and the binding [2] is reported as “binds”.

For “endogenous β-catenin (from UniProt P35222 1-781)”, the binding (GST-DSTYK fusion protein) was “binds”.

B1: endogenously expressed DSTYK (enzyme, UniProt Q6XUX3 1-929)
chain: T2 sequence
For B1, the binding [3] was “binds”.
